# Measurements from patent US5332531A, “Extracting metal ions with diphosphonic acid, or derivative thereof” (priority 1992, dated 1994).
# Tests used:
# [1] = Eu(III) complexation / stripping factor and equilibria by solvent extraction distribution ratio (HDEHP)
# [2] = Distribution coefficient, TRUEX process solvent / nitric acid, uranium; conditions: column B, 25° C.
# [3] = Distribution coefficient, TRUEX process solvent / nitric acid, americium; conditions: column B, 25° C.
# [4] = Removal of uranium from groundwater, supported liquid membrane-based process; conditions: initial 10^-4 M uranium, pH 2, 0.25M VDPA strip solution
# Excerpt: Aqueous solutions of the thermodynamically-unstable complexing agents of the present invention can be used in commercially available supported liquid membrane-based modules to strip metal ion contaminants from aqueous solution. Other devices using a porous membrane separating means can also be used. In general the aqueous solution containing uranium is in contact with one side of the porous membrane and the aqueous solution of the complexing agent is in contact with the other. A known organic extractant is permeated into the pores of the membrane to carry the metal ions from one side to the other. The aqueous solution of the complexing agent strips metal ions from the organic extractant in the pores, driving the extraction "reaction" toward removal of metal ions from the solution to be decontaminated.
# Aqueous solutions of the thermodynamically-unstable complexing agent described in this application are useful as stripping agents in a supported liquid membrane-based process for removal of uranium contaminants from groundwater. In this process, groundwater containing 10^-4 M uranium is acidified to pH of 2 by addition of small amounts of sulfuric acid and passed through porous polypropylene hollow fibers in a supported liquid membrane module. The pores of the membrane are filled with 0.1M bis(2,4,4-trimethylpentyl)phosphinic acid in n-dodecane. […]
# [5] = Distribution coefficient, TRUEX process solvent / nitric acid, plutonium; conditions: column B, 25° C.
# [6] = 2.0M NaNO3/HNO3, [H+] 0.1M to 0.02M
SMILES,"log β 121 (EuH2 L^1+) [1, 6]","log β 131 (EuH3 L^2+) [1, 6]","log β 152 (EuH5 L2) [1, 6]","log β 162 (EuH6 L2^1+) [1, 6]","log β 183 (EuH8 L3^1-) [1, 6]",stoichiometric ratio of metal to complexing agent ([1]; Eu complexes),"log β 142 (EuH4 L2^1-) [1, 6]","Distribution Coefficient (organic/aqueous), Uranium B ([2]; HNO3 1 M)","Distribution Coefficient (organic/aqueous), Uranium B ([2]; HNO3 5 M)","Distribution Coefficient (organic/aqueous), Uranium B ([2]; HNO3 5 × 10^-1 M)","Distribution Coefficient (organic/aqueous), Americium B ([3]; HNO3 1 M)","Distribution Coefficient (organic/aqueous), Americium B ([3]; HNO3 1 × 10^-1 M)","Distribution Coefficient (organic/aqueous), Americium B ([3]; HNO3 5 M)","Distribution Coefficient (organic/aqueous), Americium B ([3]; HNO3 5 × 10^-1 M)",uranium in the strip solution [4],uranium level in the groundwater after process [4],"Distribution Coefficient (organic/aqueous), Plutonium B ([5]; HNO3 1 M)","Distribution Coefficient (organic/aqueous), Plutonium B ([5]; HNO3 1 × 10^-1 M)","Distribution Coefficient (organic/aqueous), Plutonium B ([5]; HNO3 5 M)","Distribution Coefficient (organic/aqueous), Plutonium B ([5]; HNO3 5 × 10^-1 M)"
"CC(O)(P(=O)(O)O)P(=O)(O)O [HEDPA, 1-hydroxyethane-1,1-diphosphonic acid]",4.58,6.43,9.76,11.47,14.56,1:3 complexes,–,–,–,–,–,–,–,–,–,–,–,–,–,–
"C=C(P(=O)(O)O)P(=O)(O)O [VDPA, vinylidenediphosphonic acid]",3.70,5.71,–,9.96,–,–,6.33,1.4 × 10^-1,7,2.5 × 10^-2,3.5,8 × 10^-5,9.0,6.8 × 10^-1,10^-1 M,10^-8 M,4.0 × 10^-3,1.2 × 10^-4,4.0 × 10^-1,1.1 × 10^-3
